Laboratory results: PMC6098079
These are yes or no findings as the source states them, for the method shown. In cells and extracts the contact can be indirect. Some entries that bind do so weakly or less than the wild type.

Protein sequences, listed by entry. Tags and fused reporters are not part of them. Residues count along the entry.
UniProt P15116, residues 160-906: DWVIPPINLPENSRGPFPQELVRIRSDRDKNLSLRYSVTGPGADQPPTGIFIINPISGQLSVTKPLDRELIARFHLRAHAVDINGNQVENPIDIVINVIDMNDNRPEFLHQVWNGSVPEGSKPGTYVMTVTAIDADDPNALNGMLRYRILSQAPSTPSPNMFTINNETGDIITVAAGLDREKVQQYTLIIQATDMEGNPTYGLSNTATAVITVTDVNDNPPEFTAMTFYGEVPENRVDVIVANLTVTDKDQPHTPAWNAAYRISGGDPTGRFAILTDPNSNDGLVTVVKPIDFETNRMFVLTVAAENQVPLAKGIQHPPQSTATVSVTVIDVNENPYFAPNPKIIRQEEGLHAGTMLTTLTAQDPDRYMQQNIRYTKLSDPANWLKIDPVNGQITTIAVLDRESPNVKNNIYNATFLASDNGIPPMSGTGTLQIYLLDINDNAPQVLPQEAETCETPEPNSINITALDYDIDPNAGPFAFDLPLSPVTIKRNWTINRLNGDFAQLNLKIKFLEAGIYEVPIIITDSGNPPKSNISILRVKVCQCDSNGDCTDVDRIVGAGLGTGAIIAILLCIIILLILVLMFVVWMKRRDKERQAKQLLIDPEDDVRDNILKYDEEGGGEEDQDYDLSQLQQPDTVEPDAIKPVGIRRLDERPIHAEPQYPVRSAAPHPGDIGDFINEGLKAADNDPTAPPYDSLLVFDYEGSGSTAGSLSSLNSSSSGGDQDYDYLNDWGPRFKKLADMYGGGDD

Molecular target: N-cadherin (mouse (endogenous in C2C12)) (UniProt P15116)
Experiment: co-IP; C2C12 myoblast lysates, cells with or without cAng1 stimulation; immunoprecipitation with immunocruz, immunoblot

- binding: binds
B1: p120-catenin (protein, UniProt P30999 1-938)
chain: MDDSEVESTASILASVKEQEAQFEKLTRALEEERRHVSAQLERVRVSPQDANSLMANGTLTRRHQNGRFVGDADLERQKFSDLKLNGPQDHNHLLYSTIPRMQEPGQIVETYTEEDPEGAMSVVSVETTDDGTTRRTETTVKKVVKTMTTRTVQPVPMGPDGLPVDASAVSNNYIQTLGRDFRKNGNGGPGPYVGQAGTATLPRNFHYPPDGYGRHYEDGYPGGSDNYGSLSRVTRIEERYRPSMEGYRAPSRQDVYGPQPQVRVGGSSVDLHRFHPEPYGLEDDQRSMGYDDLDYGMMSDYGTARRTGTPSDPRRRLRSYEDMIGEEVPPDQYYWAPLAQHERGSLASLDSLRKGMPPPSNWRQPELPEVIAMLGFRLDAVKSNAAAYLQHLCYRNDKVKTDVRKLKGIPILVGLLDHPKKEVHLGACGALKNISFGRDQDNKIAIKNCDGVPALVRLLRKARDMDLTEVITGTLWNLSSHDSIKMEIVDHALHALTDEVIIPHSGWEREPNEDCKPRHIEWESVLTNTAGCLRNVSSERSEARRKLRECDGLVDALIFIVQAEIGQKDSDSKLVENCVCLLRNLSYQVHREIPQAERYQEALPTVANSTGPHAASCFGAKKGKDEWFSRGKKPTEDPANDTVDFPKRTSPARGYELLFQPEVVRIYISLLKESKTPAILEASAGAIQNLCAGRWTYGRYIRSALRQEKALSAIAELLTSEHERVVKAASGALRNLAVDARNKELIGKHAIPNLVKNLPGGQQNSSWNFSEDTVVSILNTINEVIAENLEAAKKLRETQGIEKLVLINKSGNRSEKEVRAAALVLQTIWGYKELRKPLEKEGWKKSDFQVNLNNASRSQSSHSYDDSTLPLIDRNQKSDKKPDREEIPMSNMGSNTKSLDNNYSTLNERGDHNRTLDRSGDLGDMEPLKGAPLMQKI
